Some of the results follow. Shown are side measurements of this screen, not its main read-out; they come without a call. Most of these compounds were active or inconclusive in the main read-out, so they are no random draw. The note in brackets gives the kind of curve behind each potency; many fits are weak.
Test: qHTS Assay for Modulators of Lamin A Splicing
Details: HeLa LMNA splicing GFP/RFP minigene ratio, 48 h
How it was run: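 S3 HeLa cells stably expressing lamin A-EGFP splicing minigene plus DsRed2, 600 cells/well, 48 h compound exposure at 37C. Laser-scanning cytometry; analysed as GFP (500-530 nm)/RFP (575-640 nm) total intensity ratio; 0.5% DMSO vehicle.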

[1] = measured here: RFP viability control channel
[2] = measured here: GFP splicing reporter channel

Structure (SMILES)	AC50 [1]	AC50 [2]
CCOc1ccc(C(=O)NCc2cccnc2)cc1	14.1 µM [rising, single point]	–
COCCNc1nc(-c2ccc(N(C)C)cc2)nc2ccccc12	35.5 µM [rising, single point]	15.8 µM [rising, single point]
CC1Cc2nc(SCC(=O)Nc3ccc(F)cc3F)n(C)c(=O)c2S1 (centres undefined)	15.8 µM [rising, single point]	–
O=C(C1CCN(c2ccc(N3CCOCC3)nn2)CC1)N1CCN(c2ccc(F)cc2)CC1	–	35.5 µM [rising, single point]
COC(=O)NC(NC(=S)Nc1ccc([N+](=O)[O-])cc1)C(Cl)(Cl)Cl (centres undefined)	25.1 µM [rising, single point]	–
CC(C)Oc1ccc(NC(=O)c2ccncc2)cc1	15.8 µM [rising, partial curve]	2 µM [rising, partial curve]
CCCN(CC(=O)Nc1ccc(F)c(F)c1F)CC(=O)Nc1c(Cl)cccc1Cl	1 µM [rising, partial curve, poor fit]	–
O=C(c1ccc(Cl)cc1)c1coc2ccc(O)cc12	35.5 µM [rising, single point]	35.5 µM [rising, single point]
CCOCc1cn(CC(=O)c2ccc([N+](=O)[O-])cc2)c(C)nc1=N	14.1 µM [rising, single point]	–
O=S(=O)(c1ccccc1)c1cnn(-c2ccccc2)c1-c1ccc(Cl)cc1	35.5 µM [rising, single point]	20 µM [rising, single point]
CCOC(=O)c1cnc(-c2ccccc2)nc1-c1ccccc1	7.08 µM [falling, partial curve]	35.5 µM [falling, partial curve, poor fit]
CC1(C)Cc2ccccc2C(NN=C2CCCC2)=N1	0.00447 µM [falling, full curve, poor fit]	–
Cc1ccc(C)c(NC(=O)C(Sc2nc3ccccc3c(=O)n2CC(C)C)c2ccccc2)c1 (centres undefined)	6.31 µM [rising, single point]	–
Cc1cccc(N2CCN(C(=O)COc3ccc4c(c3)CCC4)CC2)c1C	35.5 µM [rising, single point]	–
Cc1ccc([N+](=O)[O-])cc1S(=O)(=O)N1CCCCC1C(=O)O (centres undefined)	–	2 µM [falling, partial curve, poor fit]
CC1CCCCN1C(=O)c1ccc2c(c1)N(Cc1cccc(Cl)c1)C(=O)c1ccccc1S2=O (centres undefined)	10 µM [rising, partial curve, poor fit]	12.6 µM [rising, partial curve, poor fit]
O=C(c1ccccc1CCc1ccccc1)N1CCN(c2ccccn2)CC1	35.5 µM [rising, single point]	35.5 µM [rising, single point]
COc1cc2c3c(c1)C(C)CC(C)(C)N3C(=O)C2=O (centres undefined)	–	7.08 µM [falling, full curve, poor fit]
O=C(O)c1ccc(C2SCC(=O)N2Cc2ccco2)cc1 (centres undefined)	35.5 µM [rising, single point]	–

Structure (SMILES)	AC50 [1]	AC50 [2]
COc1ccc(C(C(O)C(=O)c2c[nH]c3ccccc23)N2CCN(c3ccccc3)CC2)cc1 (centres undefined)	14.1 µM [rising, partial curve]	–
CCOc1ccc(-c2c(C)nn3c(C)c(C(=O)NCc4ccc(Cl)cc4)cnc23)cc1OCC	8.91 µM [falling, partial curve]	–
COc1ccccc1N1CCN(CC(O)COc2ccc3c(c2)CCC3)CC1 (centres undefined)	11.2 µM [rising, partial curve]	12.6 µM [rising, single point]
COCCn1c(-c2cc(OC)c(OC)c(OC)c2)nc2oc3ccccc3c(=O)c2c1=O	35.5 µM [rising, single point]	–
CCN(Cc1ccccc1)C(=O)CSc1nncn1C	0.0501 µM [falling, full curve]	–
CCC(NC(=O)Nc1cc(Cl)ccc1OC)c1c(-n2cccc2)sc2c1CCN(C)C2 (centres undefined)	35.5 µM [falling, partial curve]	35.5 µM [falling, partial curve, poor fit]
COc1cc(/C=C2\C(=O)N(c3ccccc3)N=C2C)ccc1Oc1ccc([N+](=O)[O-])cc1[N+](=O)[O-]	5.01 µM [rising, full curve]	–
NNC(=O)CCN1CCN(C(c2ccccc2)c2ccccc2)CC1	0.158 µM [rising, full curve]	–
O=C(Nc1cccc2ccccc12)N1CCN(Cc2ccccc2)CC1	35.5 µM [rising, single point]	1.26 µM [rising, partial curve, poor fit]
N/C(=N\N=C\c1cccs1)SC1CC(=O)N(c2ccc(Br)cc2)C1=O (centres undefined)	0.794 µM [falling, full curve, poor fit]	1.58 µM [falling, full curve, poor fit]
CCC(C)(C)n1nnnc1C(c1ccc(O)c(OC)c1)N1CCN(c2nc3ccccc3s2)CC1 (centres undefined)	35.5 µM [rising, single point]	–
Cc1cccc(CSc2nc3cc(C(=O)NC4CCCC4)ccc3c(=O)n2Cc2ccccc2)c1	35.5 µM [falling, partial curve, poor fit]	–
NC(=O)c1cccc(N)c1	0.00126 µM [falling, full curve]	0.0398 µM [falling, full curve, poor fit]
Cc1ccc(C)c(NC(=S)NNC(=O)c2csc(C(C)C)c2)c1	14.1 µM [rising, single point]	–
N#CC1=C(N)Oc2n[nH]c(-c3cccs3)c2C1C1CCCCC1 (centres undefined)	35.5 µM [falling, partial curve, poor fit]	–
CCC(C)(C)n1nnnc1C(c1cc2ccc(OC)cc2[nH]c1=O)N1CCc2ccccc2C1 (centres undefined)	35.5 µM [rising, single point]	–
COc1ccc(C2C(C(C)=O)=C(C)N=c3s/c(=C\c4cc(C)n(C)c4C)c(=O)n32)c(OC)c1 (centres undefined)	14.1 µM [falling, partial curve]	14.1 µM [falling, partial curve, poor fit]
O=C(Nc1ccc(F)cc1)c1ccccc1NS(=O)(=O)N1CCCC1	–	0.355 µM [falling, full curve, poor fit]
Cc1ccc(O)c(-c2cc(-c3ccccc3[N+](=O)[O-])[nH]n2)c1	6.31 µM [rising, partial curve, poor fit]	–

Sorted by molecular weight (low to high): part of the list above.
Structure (SMILES)	AC50 [1]	AC50 [2]
O=C(Nc1ccc(F)cc1)c1ccccc1NS(=O)(=O)N1CCCC1	–	0.355 µM [falling, full curve, poor fit]
COc1ccc(C(C(O)C(=O)c2c[nH]c3ccccc23)N2CCN(c3ccccc3)CC2)cc1 (centres undefined)	14.1 µM [rising, partial curve]	–
Cc1cccc(CSc2nc3cc(C(=O)NC4CCCC4)ccc3c(=O)n2Cc2ccccc2)c1	35.5 µM [falling, partial curve, poor fit]	–

The list continues:

Structure (SMILES)	AC50 [1]	AC50 [2]
Cc1ccc(SC(C)c2nc(-c3ccncc3)no2)cc1 (centres undefined)	14.1 µM [rising, partial curve]	8.91 µM [rising, partial curve]
C=CCn1c(=O)[nH]c2cc(C(=O)N3CCN(c4ccc(C(C)=O)cc4)CC3)ccc2c1=O	22.4 µM [rising, single point]	–
CCOc1ncccc1C(=O)Nc1nnc(C)s1	–	0.0112 µM [rising, full curve, poor fit]
Nc1ccc2c(c1)COC2=O	0.0891 µM [falling, full curve]	3.98 µM [falling, partial curve, poor fit]
O=S(=O)(c1c(F)cccc1F)N1CCN(C(=S)NCc2ccc3c(c2)OCO3)CC1	35.5 µM [rising, partial curve, poor fit]	–
O=C(NNC(=S)NC1CCCCC1)c1sc2ccccc2c1Cl	3.55 µM [rising, full curve]	–
O=C(NCc1cccnc1)c1cccc(NC(=O)c2ccco2)c1	–	1.41 µM [rising, partial curve]
Cc1[nH]n(-c2ccccc2)c(=O)c1/C=N/NC(=O)C(C)C	2.82 µM [rising, single point]	–
O=C(CCc1nc(-c2ccccc2F)no1)NCCN1CCc2ccccc2C1	0.00447 µM [falling, full curve, poor fit]	0.0112 µM [falling, full curve, poor fit]
Cc1cc(C)c2c(CN3CCN(Cc4ccc5c(c4)OCO5)CC3)cc(=O)oc2c1C	–	8.91 µM [rising, partial curve]
O=[N+]([O-])c1cc(S(=O)(=O)Nc2ccc(Cl)cc2)ccc1N/N=C/c1ccncc1	8.91 µM [rising, partial curve, poor fit]	–
Cc1c(CCNC(=O)Cc2ccccc2)sc2nc(-c3ccc(F)cc3)nn12	–	10 µM [rising, partial curve]
CN(C)C/C=C(\c1ccc(Br)cc1)c1cccnc1	–	0.355 µM [falling, full curve, poor fit]
Cc1c(C(=O)c2ccc(Cl)cc2[N+](=O)[O-])c2ccccn2c1CCC#N	12.6 µM [rising, single point]	–
Cc1ccc2nc3c(cc(C(N)=S)c(=N)n3CCCOC(C)C)c(=O)n2c1	14.1 µM [rising, single point]	–
COc1ccccc1C(=O)Oc1cc(N)n(S(=O)(=O)c2ccccc2)n1	35.5 µM [falling, partial curve, poor fit]	0.0447 µM [falling, full curve, poor fit]
Cc1cccn2c(=O)c3cc(C#N)c(=O)n(CCCN4CCOCC4)c3nc12	11.2 µM [rising, partial curve]	–
CCNC(=S)N/N=C(\C)c1ccc(Cl)s1	14.1 µM [rising, single point]	12.6 µM [rising, partial curve, poor fit]

— PubChem BioAssay AID1487 (National Center for Advancing Translational Sciences (NCATS), 2009)
